# From US9771560B2, “High-throughput image-based chemical screening in zebrafish blastomere cell culture” (CHILDREN'S MEDICAL CENTER CORPORATION, priority 2012, dated 2017)
# Entries after “also recorded” stand apart in the source; their conditions may differ. Where a name gives a salt, the structure may show the parent alone. At least one structure is not confirmed: it was looked up by name or label, or the drawing left a doubt.
# Columns and labels:
# zebrafish embryos = assay: Whole-mount in situ hybridization with myoD riboprobe in chemical-treated zebrafish embryos; assay type: in vivo
# Procedure: FIGS. 9A-9C show the chemical genetics screens to identify modifiers of skeletal muscle development (related to FIG. 2) FIG. 9A, Embryos were treated with hits at the sphere stage. Once the control embryos reached the 6-somite stage, they were collected for whole-mount in situ hybridization with the myoD riboprobe. […] Flat mounted embryos stained with the myoD riboprobe at the 6-somite stage are shown with anterior to the left. Embryos were treated with (±)-6-Chloro-PB hydrobromide, LY-294002, 1-ACYL-PAF, or ATRA. All chemicals were from the CHB library and were diluted 300-fold. The level of myoD reduction was determined by comparing the intensity of myoD expression in these embryos with that in control embryos treated with DMSO. FIG. 9B, myf5-GFP; mylz2-mCherry embryos were collected at the oblong stage and disassociated. The resulting blastomere cells were aliquoted into a 96-well plate with pre-added chemicals. The culture medium contained 10 ng/ml bFGF to promote muscle development. Cells were treated with 50 μM tyrphostin AG 879, 50 μM tyrphostin AG 808, 50 μM tyrphostin AG 555, 50 μM PD 98059, 10 μM U0126, 10 μM LY-294002, 10 μM wortmannin, or 20 μM rapamycin. Cells were imaged after 2 days by the Celigo cytometer for GFP, mCherry, and bright-field signals. […]
# [1] = tested on: zebrafish blastomere cells; assay: Culture of disassociated myf5-GFP; mylz2-mCherry blastomere cells in zESC medium (validation and pathway inhibitor tests); assay type: cell-based; conditions: 96-well plate, 10 ng/ml bFGF, imaged after 2 days; 10 μM LY-294002, 10 μM wortmannin, 20 μM rapamycin
# Procedure: FIGS. 1A-1E show the chemical genetic screen to identify modifiers of skeletal muscle development. […] The yolk of the double transgenic embryo is mCherry positive, presumptively due to the maternal deposit of mCherry protein. mylz2-mCherry expression is not observed until 32 hpf. Its expression is first detected in anterior somites and then progressively spreads to posterior somites. […] Images were taken 48 hours after plating. Scale bars represent 250 μM. […] Blastomere cells from myf5-GFP; mylz2-mCherry embryos were cultured with or without bFGF and harvested at 24 hours. Results of bFGF treated cells are normalized to the expression of untreated cells. Error bars represent standard deviation (SD) from the triplicate quantitative RT-PCR reaction. All expressions are normalized to β-actin. […] Blastomere cells from myf5-GFP; mylz2-mCherry embryos were cultured with bFGF and harvested at 24 hours. Different populations were isolated by FACS. […] Error bars represent standard deviation (SD) from the triplicate quantitative RT-PCR reaction. […]
# FIGS. 9A-9C show the chemical genetics screens to identify modifiers of skeletal muscle development (related to FIG. 2) FIG. 9A, Embryos were treated with hits at the sphere stage. […] The level of myoD reduction was determined by comparing the intensity of myoD expression in these embryos with that in control embryos treated with DMSO. […]
# [2] = tested on: satellite cells from C57BL/6J mice; assay: Myogenic colony formation assay from single satellite cells; assay type: cell-based, mouse; conditions: one cell per well, 96-well plates, 6 days, vs DMSO
# [3] = tested on: satellite cells from mdx mice; assay: In vitro expansion of mdx satellite cells (cell count); assay type: cell-based, mouse; conditions: presence of bFGF, day 5, relative to wild type cells treated with DMSO
# Procedure: (§1) SMP isolation was performed as previously described (Cerletti et al., 2008; Sherwood et al., 2004). Briefly, MFA cells were prepared from intact skeletal muscles (EDL, gastrocnemius, quadriceps, soleus, TA, triceps brachii, abdominal) by digesting the muscles with collagenase type II and then dispase enzymes. MFA cells were stained for isolation of CD45^−Sca-1^−Mac-1^−CXCR4^+ b1-integrin^+ cell population by FACS. For in vitro expansion experiments, SMPs were seeded on collagen/laminin-coated plates in F10 (Gibco) containing 20% horse serum (Atlanta Biologics), 1% penicillin-streptomycin (Invitrogen) and 1% glutamax (Invitrogen). […] Cells were counted or used for transplantation after 5 days in culture. For Myogenic colony formation assay cells were fixed and counted after 6 days in culture. […]
# (§2) Cultured SMPs were fixed in 4% paraformaldehyde (PFA) and stained with 10 μg/ml Hoechst (Invitrogen). […] The images were analyzed and numbers of cells were counted by the built-in software. […] The images were analyzed and percentage of nuclei in myotubes was calculated using a modified ImageJ macro developed in-house. […]
# (§3) We hypothesized that the chemical hits enhancing skeletal muscle development in zebrafish blastomeres may likewise promote muscle precursor cell formation and/or expansion in other species. […] Cell number in the resulting colonies was determined after 5 days in culture.
# [4] = tested on: zebrafish blastomere cells; assay: Sensitized chemical screen in zebrafish blastomere cell culture in the absence of bFGF; assay type: cell-based
# Text: FIGS. 2A-2C show the chemical genetic screens to identify modifiers of skeletal muscle development. FIG. 2A is a schematic of a high-throughput image-based chemical screening assay. Approximately 800 myf5-GFP; mylz2-mCherry double transgenic embryos were collected and disassociated at the oblong stage. The resulting blastomere cells were aliquoted into four 384-well plates with pre-added chemicals. We performed duplicates for each chemical to mitigate false positives. After 2 days, the 384-well plates were imaged using a Celigo cytometer. For each well, an image for each signal channel was captured. GFP and mCherry signals were determined by the Celigo cytometer's built-in software and confirmed by eye. […] Most of the hits could be grouped into three categories. […] The phenotype is presumptively due to inhibition of differentiation of muscle progenitors into mature muscle. […] This phenotype is presumptively due to the blocking of muscle progenitor commitment. […] Scale bars represent 250 μM. […] Scale bars represent 250 μM.
# Four 384-well plates were coated with 0.1% gelatin. Chemicals from the CHB library were diluted 150 times with zESC medium containing 1 ng/ml bFGF and were aliquoted 30 μl per well. […] The images were analyzed by the built-in software and confirmed eye. […]
# [5] = tested on: satellite cells from C57BL/6J mice; assay: In vitro differentiation of satellite cells (percentage of nuclei in myotubes); assay type: cell-based, mouse; conditions: vs DMSO; for percentage of nuclei in myotubes (myotube formation): forskolin during 5 days growth, differentiated in the absence of the compound
# [6] = tested on: satellite cells from C57BL/6J mice; assay: In vitro expansion of mouse satellite cells (cell count); assay type: cell-based
# Procedure: as §1, §2, §3
# [7] = tested on: cAMP levels in mouse satellite cell cultures; assay: cAMP-Glo assay in cultured satellite cells; assay type: cell-based
# Procedure: cAMP assay was performed using the cAMP-Glo™ Assay kit (Promega) according to the manufacturer's protocol.
# To test forskolin's effect on satellite cell survival and proliferation, single cells were plated at one cell per well in 96-well plates and treated with forskolin or DMSO. After six days in vitro culture, we quantified the number of wells containing any number of myogenic cells (a measure of cell survival) and the number of cells in those wells (a measure of cell proliferation) (FIG. 3D).
# [8] = tested on: TA muscle of recipient mdx mice; assay: Transplantation of cultured GFP+ satellite cells into pre-injured TA muscle of mdx mice; assay type: in vivo, mouse
# [9] = tested on: double fgf8; fgf24 morphant; assay: Rescue of myogenesis in fgf8; fgf24 double morphant embryos; assay type: in vivo, zebrafish; conditions: 250 pg fgf8-MO and 250 pg fgf24-MO; 10 forskolin added at the dome stage
smiles,measurement,setting,value
COC1=C2C[C@@H](C)C[C@H](OC)[C@H](O)[C@@H](C)/C=C(\C)[C@H](OC(N)=O)[C@@H](OC)/C=C\C=C(/C)C(=O)NC(=CC1=O)C2=O [Geldanamycin],myoD expression,"zebrafish embryos; embryos treated at the sphere stage, assayed at the 6-somite stage, CHB library chemicals diluted 300-fold, compared with DMSO",No change
CO[C@H]1C[C@@H]2CC[C@@H](C)[C@@](O)(O2)C(=O)C(=O)N2CCCC[C@H]2C(=O)O[C@H]([C@H](C)C[C@@H]2CC[C@@H](O)[C@H](OC)C2)CC(=O)[C@H](C)/C=C(\C)[C@@H](O)[C@@H](OC)C(=O)[C@H](C)C[C@H](C)/C=C/C=C/C=C/1C [Rapamycin],muscle-promoting effect of bFGF / muscle development induced by bFGF,[1],blocked muscle development induced by bFGF
C=C[C@@]1(C)CC(=O)[C@]2(O)[C@@]3(C)[C@@H](O)CCC(C)(C)[C@@H]3[C@H](O)[C@H](OC(C)=O)[C@@]2(C)O1 [forskolin],in vitro clonal plating efficiency / frequency of myogenic colony formation (cell survival),[2],did not differ; also recorded: not affected
same,number of myogenic cells per colony from a single satellite cell (proliferation),[2],contained more cells; also recorded: increases the number of myogenic cells
same,cell number / proliferation of mdx satellite cells,[3],restored their proliferation to levels seen normally in cultures of untreated wild-type satellite cells; also recorded: restores the number of cultured satellite cells
same,cell number / proliferation of mdx satellite cells,[3]; listed as Forskolin,increased cell number
same,GFP and mCherry signals,[4],increase the GFP and mCherry signals
same,percentage of nuclei in myotubes (differentiation potential),"[5]; cells expanded under control conditions, differentiated in the presence of forskolin",not different; also recorded: not affected
same,percentage of nuclei in myotubes (myotube formation),[5],same efficiency as control treated cells
same,percentage of nuclei in myotubes (myotube formation),[5]; listed as Forskolin,don't show any defect
same,number of cells in satellite cell cultures,[6]; both in the presence and absence of bFGF,significantly increased
same,expansion of mouse satellite cell cultures,"[6]; different concentrations, 5 days in culture (data not shown)",dose-dependent expansion
same,cAMP levels,[7],dose dependent increase in cAMP levels
same,number of donor-derived GFP+ fibers,"[8]; cells expanded from 6,000 satellite cells, 5 days with forskolin, 3-4 weeks after transplantation, vs freshly isolated or DMSO-treated cells",significantly higher
same,Dystrophin in engrafted myofibers of mdx muscle,[8]; transplant of forskolin-treated GFP+ satellite cells,stained for Dystrophin; also recorded: restores Dystrophin expression
same,rescue of myogenesis defect,[9],rescued the myogenesis defect
"O=c1cc(N2CCOCC2)oc2c(-c3ccccc3)cccc12 [LY-294,002 hydrochloride]",perturbation of muscle development in vivo (myoD riboprobe),"zebrafish embryos; treated at the sphere stage, 6-somite stage, diluted 300-fold",verified to perturb muscle development in vivo
same,muscle-promoting effect of bFGF / muscle development induced by bFGF,[1],blocked completely
